Some results were stated once for a whole list of compounds, not compound by compound.
Tests used:
[1] = biological target: K-RasG12V (Homo sapiens, UniProt P01116+P62937, G12V); assay: Disruption of BRAF RBD interaction with K-Ras (TR-FRET / MOA assay), K-RasG12V; format: biochemical; details: TR-FRET with cyclophilin A and GST-BRAF RBD, read-out: IC50 with respect to K-RasG12V (disruption of BRAF RBD interaction)
[2] = biological target: K-RasG12A (Homo sapiens, UniProt P01116+P62937, G12A); assay: Disruption of BRAF RBD interaction with K-Ras (TR-FRET / MOA assay), K-RasG12A; format: biochemical; details: TR-FRET with cyclophilin A and GST-BRAF RBD, read-out: IC50 with respect to K-RasG12A (disruption of BRAF RBD interaction)
[3] = test system: Capan-1 (K-Ras G12V); assay: CellTiter-Glo cell viability assay, Capan-1; format: cell-based, human; details: 5-day treatment, Capan-1 and/or NCI-H2009 versus A375

Sequences of proteins named here, by UniProt entry; tags and fusion partners are left off. A change or cut given only in a name is not applied to a line headed by its entry. Residues count along the entry.
UniProt P01116, 1-188 isoform P01116-2 G12V: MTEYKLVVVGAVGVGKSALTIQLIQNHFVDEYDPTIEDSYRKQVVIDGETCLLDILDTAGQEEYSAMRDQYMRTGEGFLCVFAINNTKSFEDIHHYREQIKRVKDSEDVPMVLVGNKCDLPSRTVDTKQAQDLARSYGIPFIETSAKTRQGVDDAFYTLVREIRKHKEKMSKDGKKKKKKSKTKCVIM
UniProt P01116, 1-188 isoform P01116-2 G12A: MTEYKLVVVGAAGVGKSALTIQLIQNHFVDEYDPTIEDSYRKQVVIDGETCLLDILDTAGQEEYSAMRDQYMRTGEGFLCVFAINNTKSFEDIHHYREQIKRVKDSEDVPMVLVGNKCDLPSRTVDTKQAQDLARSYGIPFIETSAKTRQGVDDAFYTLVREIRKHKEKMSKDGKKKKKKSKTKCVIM
UniProt P62937, whole entry: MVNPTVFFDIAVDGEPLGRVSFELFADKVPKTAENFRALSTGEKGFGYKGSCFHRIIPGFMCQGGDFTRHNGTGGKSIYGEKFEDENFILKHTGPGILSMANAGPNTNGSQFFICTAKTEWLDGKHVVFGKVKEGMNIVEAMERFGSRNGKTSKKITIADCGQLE

| Compound | IC50 [1] [nM] | IC50 [2] [nM] | decrease in cell viability with respect to Capan-1 and/or NCI-H2009 versus wild-type KRAS (A375) [3] |
| --- | --- | --- | --- |
| CO[C@@H](C)c1ncccc1-c1c2c3cc(ccc3n1C1CN(C3CC3)C1)-c1csc(n1)[C@@H](N1CCOC3(CN(C)C3)C1)[C@H](NC(=O)[C@H]1[C@H](C)[C@@H]1C)C(=O)N1CCC[C@H](N1)C(=O)OCC(C)(C)C2 (atropisomer, axis not shown) [Example A1027] | < 1000 | < 1000 | greater decrease in cell viability |
| CO[C@@H](C)c1ncccc1-c1c2c3cc(ccc3n1C1CN(C3CC3)C1)-c1csc(n1)[C@@H](OCC1CCN(C)CC1)[C@H](NC(=O)[C@H]1[C@H](C)[C@@H]1C)C(=O)N1CCC[C@H](N1)C(=O)OCC(C)(C)C2 (atropisomer, axis not shown) [Example A1028] | < 1000 | < 1000 | greater decrease in cell viability |
| CO[C@@H](C)c1ncccc1-c1c2c3cc(ccc3n1C1CN(C3CC3)C1)-c1csc(n1)[C@@H](N1CCOC3(CN(C)C3)C1)[C@H](NC(=O)[C@@H]1[C@@H](C)[C@H]1c1ccncn1)C(=O)N1CCC[C@H](N1)C(=O)OCC(C)(C)C2 (atropisomer, axis not shown) [Example A1029] | < 1000 | < 1000 | greater decrease in cell viability |
| CO[C@@H](C)c1ncccc1-c1c2c3cc(ccc3n1C1CN(C3CC3)C1)-c1csc(n1)[C@@H](OCC1CCN(C)CC1)[C@H](NC(=O)[C@@H]1[C@@H](C)[C@H]1c1ccncn1)C(=O)N1CCC[C@H](N1)C(=O)OCC(C)(C)C2 (atropisomer, axis not shown) [Example A1030] | < 1000 | < 1000 | greater decrease in cell viability |
| CO[C@@H](C)c1ncccc1-c1c2c3cc(ccc3n1C1CN(C3CC3)C1)-c1coc(n1)[C@@H](N1CC3(COC3)C1)[C@H](NC(=O)[C@@H]1[C@@H](C)[C@H]1C(C)C)C(=O)N1CCC[C@H](N1)C(=O)OCC(C)(C)C2 (atropisomer, axis not shown) [Example A1031] | < 1000 | < 1000 | greater decrease in cell viability |
| CO[C@@H](C)c1ncccc1-c1c2c3cc(ccc3n1C1CN(C3CC3)C1)-c1coc(n1)[C@@H](N1CC3(CCN3)C1)[C@H](NC(=O)[C@@H]1[C@@H](C)[C@H]1c1ccncn1)C(=O)N1CCC[C@H](N1)C(=O)OCC(C)(C)C2 (atropisomer, axis not shown) [Example A1032] | < 1000 | < 1000 | greater decrease in cell viability |
| CO[C@@H](C)c1ncccc1-c1c2c3cc(ccc3n1C1CN(C3CC3)C1)-c1coc(n1)[C@@H](N1CC3(CCN3)C1)[C@H](NC(=O)[C@H]1[C@H](C)[C@@H]1C)C(=O)N1CCC[C@H](N1)C(=O)OCC(C)(C)C2 (atropisomer, axis not shown) [Example A1033] | < 1000 | < 1000 | greater decrease in cell viability |
| CO[C@@H](C)c1ncccc1-c1c2c3cc(ccc3n1C1CN(C3CC3)C1)-c1coc(n1)[C@@H](N1CC3(CCCN3C)C1)[C@H](NC(=O)[C@H]1[C@H](C)[C@@H]1C)C(=O)N1CCC[C@H](N1)C(=O)OCC(C)(C)C2 (atropisomer, axis not shown) [Example A1034] | < 1000 | < 1000 | greater decrease in cell viability |
| CO[C@@H](C)c1ncccc1-c1c2c3cc(ccc3n1C1CN(C3CC3)C1)-c1coc(n1)[C@@H](N1CC3(CN(C(C)=O)C3)C1)[C@H](NC(=O)[C@@H]1[C@@H](C)[C@H]1c1ccncn1)C(=O)N1CCC[C@H](N1)C(=O)OCC(C)(C)C2 (atropisomer, axis not shown) [Example A1035] | < 1000 | < 1000 | greater decrease in cell viability |
| CO[C@@H](C)c1ncccc1-c1c2c3cc(ccc3n1C1CN(C3CC3)C1)-c1coc(n1)[C@@H](N1CC3(CN(C(C)=O)C3)C1)[C@H](NC(=O)[C@H]1[C@H](C)[C@@H]1C)C(=O)N1CCC[C@H](N1)C(=O)OCC(C)(C)C2 (atropisomer, axis not shown) [Example A1036] | < 1000 | < 1000 | greater decrease in cell viability |
| CO[C@@H](C)c1ncccc1-c1c2c3cc(ccc3n1C1CN(C3CC3)C1)-c1csc(n1)[C@@H](N1CCC(F)CC1)[C@H](NC(=O)[C@H]1[C@H](C)[C@@H]1C)C(=O)N1CCC[C@H](N1)C(=O)OCC(C)(C)C2 (atropisomer, axis not shown) [Example A1037] | < 1000 | < 1000 | greater decrease in cell viability |
| CO[C@@H](C)c1ncccc1-c1c2c3cc(ccc3n1C1CN(C3CC3)C1)-c1csc(n1)[C@@H](OC1CCN(C)CC1)[C@H](NC(=O)[C@H]1[C@H](C)[C@@H]1C)C(=O)N1CCC[C@H](N1)C(=O)OCC(C)(C)C2 (atropisomer, axis not shown) [Example A1038] | < 1000 | < 1000 | greater decrease in cell viability |
| CO[C@@H](C)c1ncccc1-c1c2c3cc(ccc3n1C1CN(C3CC3)C1)-c1csc(n1)[C@@H](OCc1cscn1)[C@H](NC(=O)[C@H]1[C@H](C)[C@@H]1C)C(=O)N1CCC[C@H](N1)C(=O)OCC(C)(C)C2 (atropisomer, axis not shown) [Example A1039] | < 1000 | < 1000 | greater decrease in cell viability |
| CO[C@@H](C)c1ncccc1-c1c2c3cc(ccc3n1C1CN(C3CC3)C1)-c1csc(n1)[C@@H](OCS(C)(=O)=O)[C@H](NC(=O)[C@H]1[C@H](C)[C@@H]1C)C(=O)N1CCC[C@H](N1)C(=O)OCC(C)(C)C2 (atropisomer, axis not shown) [Example A1041] | < 1000 | < 1000 | greater decrease in cell viability |
| CO[C@@H](C)c1ncccc1-c1c2c3cc(ccc3n1C1CN(C3CC3)C1)-c1csc(n1)[C@@H](N1CC3(CCCN3S(C)(=O)=O)C1)[C@H](NC(=O)[C@H]1[C@H](C)[C@@H]1C)C(=O)N1CCC[C@H](N1)C(=O)OCC(C)(C)C2 (atropisomer, axis not shown) [Example A1042] | < 1000 | < 1000 | greater decrease in cell viability |
| CO[C@@H](C)c1ncccc1-c1c2c3cc(ccc3n1C1CN(C3CC3)C1)-c1csc(n1)[C@@H](N1CC3(CCCN3C3CCOCC3)C1)[C@H](NC(=O)[C@H]1[C@H](C)[C@@H]1C)C(=O)N1CCC[C@H](N1)C(=O)OCC(C)(C)C2 (atropisomer, axis not shown) [Example A1043] | < 1000 | < 1000 | greater decrease in cell viability |
| CO[C@@H](C)c1ncccc1-c1c2c3cc(ccc3n1C1CN(C3CC3)C1)-c1csc(n1)[C@@H](N1CCC(F)CC1)[C@H](NC(=O)[C@@H]1[C@@H](C)[C@H]1c1ccncn1)C(=O)N1CCC[C@H](N1)C(=O)OCC(C)(C)C2 (atropisomer, axis not shown) [Example A1044] | < 1000 | < 1000 | greater decrease in cell viability |
| CO[C@@H](C)c1ncccc1-c1c2c3cc(ccc3n1C1CN(C3CC3)C1)-c1csc(n1)[C@@H](N1CCOC3(COC3)C1)[C@H](NC(=O)[C@@H]1[C@@H](C)[C@H]1c1ccncn1)C(=O)N1CCC[C@H](N1)C(=O)OCC(C)(C)C2 (atropisomer, axis not shown) [Example A1045] | < 1000 | < 1000 | greater decrease in cell viability |
| CO[C@@H](C)c1ncccc1-c1c2c3cc(ccc3n1C1CN(C3CC3)C1)-c1csc(n1)[C@@H](OC1CCN(C)CC1)[C@H](NC(=O)[C@@H]1[C@@H](C)[C@H]1c1ccncn1)C(=O)N1CCC[C@H](N1)C(=O)OCC(C)(C)C2 (atropisomer, axis not shown) [Example A1046] | < 1000 | < 1000 | greater decrease in cell viability |
| CO[C@@H](C)c1ncccc1-c1c2c3cc(ccc3n1C1CN(C3CC3)C1)-c1csc(n1)[C@@H](OCC(C)C)[C@H](NC(=O)[C@@H]1[C@@H](C)[C@H]1c1ccncn1)C(=O)N1CCC[C@H](N1)C(=O)OCC(C)(C)C2 (atropisomer, axis not shown) [Example A1047] | < 1000 | < 1000 | greater decrease in cell viability |
| CO[C@@H](C)c1ncccc1-c1c2c3cc(ccc3n1C1CN(C3CC3)C1)-c1csc(n1)[C@@H](OCc1cscn1)[C@H](NC(=O)[C@@H]1[C@@H](C)[C@H]1c1ccncn1)C(=O)N1CCC[C@H](N1)C(=O)OCC(C)(C)C2 (atropisomer, axis not shown) [Example A1048] | < 1000 | < 1000 | greater decrease in cell viability |
| CO[C@@H](C)c1ncccc1-c1c2c3cc(ccc3n1C1CN(C3CC3)C1)-c1csc(n1)[C@@H](OCS(C)(=O)=O)[C@H](NC(=O)[C@@H]1[C@@H](C)[C@H]1c1ccncn1)C(=O)N1CCC[C@H](N1)C(=O)OCC(C)(C)C2 (atropisomer, axis not shown) [Example A1049] | < 1000 | < 1000 | greater decrease in cell viability |

From patent US20250154171A1, “RAS INHIBITORS” (Revolution Medicines, Inc., priority 2023, published 2025)
